Reference: PMC6967409 (Frontiers in Chemistry, 2020)

Columns and labels:
P. falciparum Dd2 [1] = system: P. falciparum Dd2; parameters: method as in Coertzen et al. (2018); conditions: resistance index; ref Coertzen et al. (2018); cited from earlier work
[2] = system: P. falciparum PL08-009 (5C); experiment: T0 [3H]-hypoxanthine drug susceptibility assay, artemisinin-resistant clone (C580Y); assay type: cell-based, Plasmodium falciparum
P. falciparum K1 [3] = system: P. falciparum K1; parameters: method as in Coertzen et al. (2018); conditions: resistance index; ref Coertzen et al. (2018); cited from earlier work
[4] = system: P. falciparum NF54 late stage gametocytes (>90% stage IV and V); parameters: method as in Coertzen et al. (2018); conditions: ref Coertzen et al. (2018); cited from earlier work
[5] = system: P. falciparum ARC08-22 (4G); experiment: T0 [3H]-hypoxanthine drug susceptibility assay, artemisinin-resistant clone (C580Y); assay type: cell-based, Plasmodium falciparum
[6] = system: Chinese hamster ovarian (CHO) cells; conditions: selectivity index; ref Coertzen et al. (2018); cited from earlier work
P. falciparum W2 [7] = system: P. falciparum W2; parameters: method as in Coertzen et al. (2018); conditions: resistance index; ref Coertzen et al. (2018); cited from earlier work
[8] = system: P. falciparum NF54 late stage gametocytes (>90% stage IV and V); experiment: Gametocytocidal luciferase reporter assay, late stage, 72 h; assay type: cell-based, Plasmodium falciparum
Experimental: (§1) P. falciparum parasites (NF54, K1, and W2) were cultured in vitro in human erythrocytes (A^+ or O^+) under 90% N2, 5% CO2, and 5% O2 atmospheric conditions with supplemented RPMI 1640 media (Sigma Aldrich) containing Albumax II, as previously described (Verlinden et al., [2011]). This study was carried out according the guidelines set out by the Faculty of Health Sciences Ethical Committee, Ethical Clearance no. EC-120821/077. The protocol was approved by the Faculty of Health sciences ethical committee at the University of Pretoria. All subjects gave written informed consent in accordance with the Declaration of Helsinki. Parasite proliferation was monitored microscopically using Giemsa stained smears. Synchronized ring stage parasites (>95%) were obtained using a 5% D-sorbitol (Sigma Aldrich) treatment. […] Gametocyte cultures were kept stationary under 90% N2, 5% CO2, and 5% O2 atmospheric conditions at 37°C and treated with 50 mM N-acetyl-glucosamine (NAG) to eliminate residual invasion of asexual parasites.
Gametocytocidal activity was determined using the luciferase reporter line (Reader et al., [2015]) to derive dose responses with two-fold serial drug dilutions for 48 h against early stage gametocytes (day 5 post-induction population, >90% stage I–III) and 10-fold serial drug dilutions for 72 h against late stage gametocytes (day 10 post-induction population, >90% late stage IV–V) (2% gametocytemia, 2% hematocrit), at 37°C under 90% N2, 5% CO2, and 5% O2 atmospheric conditions.

P. falciparum W2 [9] = experiment: Proliferative (SYBR Green I) assay, asexual parasites, 96 h; assay type: cell-based, Plasmodium falciparum; conditions: resistance index
Experimental: as §1
(§2) Working solutions of the derivatives were prepared from a 10 mM stock solution in 100% DMSO in supplemented RPMI 1640 media containing Albumax II with a final DMSO concentration of <0.1%, previously determined as being non-toxic to intraerythrocytic asexual parasites and gametocytes. Dose responses were assayed using a two-fold serial drug dilution on in vitro >95% ring stage intraerythrocytic P. falciparum parasites at 37°C under 90% N2, 5% CO2, and 5% O2 atmospheric conditions, detecting both parasite lactate dehydrogenase (pLDH) activity as a metabolic marker following a 48 h drug exposure (1.5–2% parasitemia and 2% hematocrit; Makler et al., [1993]) and SYBR Green I fluorescence as proliferative marker following a 96 h drug exposure (1% parasitemia and 1% hematocrit). […] Data analysis was performed using GraphPad Prism 7.

P. falciparum K1 [10] = experiment: as above; assay type: cell-based, Plasmodium falciparum; conditions: resistance index
Experimental: as §1, §2

P. falciparum Dd2 [11] = experiment: Metabolic (parasite LDH) assay, asexual ring stage parasites, 48 h; assay type: cell-based, Plasmodium falciparum; conditions: resistance index
Experimental: as §2

Structure (SMILES) | RI (IC50 Dd2/IC50 NF54), metabolic (P. falciparum Dd2 [1]) | RI (IC50 for PL08-09 (5C)/IC50 for W2) [2] | RI (IC50 K1/IC50 NF54), proliferative (P. falciparum K1 [3]) | Fold change preference ratio: EG to LG [4] | Fold change preference ratio: LG to EG [4] | RI (IC50 for ARC08-22(4G)/IC50 for W2) [5] | SI (EC50 CHO/IC50 NF54 proliferative assay) [6] | RI (column beside W2; footnote f IC50 Dd2/IC50 NF54), proliferative (P. falciparum W2 [7]) | Fold change preference ratio: EG to LG [8] | Fold change preference ratio: LG to EG [8] | RI (column beside W2; footnote f IC50 Dd2/IC50 NF54), proliferative (P. falciparum W2 [9]) | RI (IC50 K1/IC50 NF54), proliferative (P. falciparum K1 [10]) | RI (IC50 Dd2/IC50 NF54), metabolic (P. falciparum Dd2 [11]) | fold decrease in susceptibility of PL08-009 (5C) ([2]; relative to W2)
CC1CCC2C(C)C(Nc3ccc(F)cc3)OC3OC4(C)CCC1C32OO4 (stereo not shown) [Arylamine 12] | 1.41 | 3.3 | 0.48 | 0.4 | 2.3 | 1.2 | 371 | 2.55 |  |  |  |  |  | 
CCN(CC)CCCC(C)Nc1ccnc2cc(Cl)ccc12 (stereo not shown) [CQ, chloroquine] | 25.1 |  | 15.4 |  |  |  |  |  |  |  |  |  |  | 
CCCCS(=O)(=O)N1CCN([C@@H]2O[C@@H]3O[C@@]4(C)CC[C@H]5[C@H](C)CC[C@@H]([C@H]2C)[C@@]35OO4)CC1 [Compound 13] |  |  |  |  |  |  |  |  | 0.02 | 40.55 | 1.6 | 1.1 |  | 
CC(=O)Nc1ccc(S(=O)(=O)N2CCN([C@@H]3O[C@@H]4O[C@@]5(C)CC[C@H]6[C@H](C)CC[C@@H]([C@H]3C)[C@@]46OO5)CC2)cc1 [Compound 15] |  |  |  |  |  |  |  |  | 0.11 | 8.78 | 2.0 | 1.3 | 1.8 | 
C[C@H]1[C@H](N2CCN(S(=O)(=O)c3cccc(C(F)(F)F)c3)CC2)O[C@@H]2O[C@@]3(C)CC[C@H]4[C@H](C)CC[C@@H]1[C@@]24OO3 [Compound 16] |  |  |  |  |  |  |  |  | 0.02 | 46.26 | 1.4 | 1.5 | 5.7 | 
C[C@H]1[C@H](N2CCN(S(=O)(=O)c3cccc(F)c3)CC2)O[C@@H]2O[C@@]3(C)CC[C@H]4[C@H](C)CC[C@@H]1[C@@]24OO3 [Compound 17] |  |  |  |  |  |  |  |  | 0.05 | 20.98 | 1.5 | 1.6 | 3.1 | 
C[C@H]1[C@H](N2CCN(S(=O)(=O)c3ccc(C(F)(F)F)cc3)CC2)O[C@@H]2O[C@@]3(C)CC[C@H]4[C@H](C)CC[C@@H]1[C@@]24OO3 [Compound 18] |  |  |  |  |  |  |  |  | 0.05 | 18.60 | 1.7 | 1.6 | 4.9 | 
C[C@H]1[C@H](N2CCN(S(=O)(=O)c3ccc(F)cc3)CC2)O[C@@H]2O[C@@]3(C)CC[C@H]4[C@H](C)CC[C@@H]1[C@@]24OO3 [Compound 19] |  |  |  |  |  |  |  |  | 0.06 | 16.28 | 1.4 | 1.2 | 5.9 | 
C[C@H]1[C@H](N2CCN(C(=O)Nc3ccc(C(C)(C)C)cc3)CC2)O[C@@H]2O[C@@]3(C)CC[C@H]4[C@H](C)CC[C@@H]1[C@@]24OO3 [Compound 22] |  |  |  |  |  |  |  |  | 0.39 |  | 0.8 | 0.6 | 11.7 | 
C[C@H]1[C@H](N2CCN(C(=O)Nc3ccc(C(F)(F)F)cc3)CC2)O[C@@H]2O[C@@]3(C)CC[C@H]4[C@H](C)CC[C@@H]1[C@@]24OO3 [Compound 23] |  |  |  |  |  |  |  |  | 0.05 | 19.48 | 0.9 | 0.7 | 6.7 | 
C[C@H]1[C@H](N2CCN(C(=O)Nc3ccc(F)cc3)CC2)O[C@@H]2O[C@@]3(C)CC[C@H]4[C@H](C)CC[C@@H]1[C@@]24OO3 [Compound 24] |  |  |  |  |  |  |  |  | 0.47 |  | 0.9 | 0.65 | 7.6 | 
C[C@H]1[C@H](NS(=O)(=O)N2CCN(c3ccccn3)CC2)O[C@@H]2O[C@@]3(C)CC[C@H]4[C@H](C)CC[C@@H]1[C@@]24OO3 [Compound 29] |  |  |  |  |  |  |  |  | 0.00 | 578.76 | 0.8 | 1.1 | 3.8 | 
C[C@H]1[C@H](NS(=O)(=O)N2CCN(c3ccc(C(F)(F)F)cn3)CC2)O[C@@H]2O[C@@]3(C)CC[C@H]4[C@H](C)CC[C@@H]1[C@@]24OO3 [Compound 30] |  |  |  |  |  |  |  |  | 0.21 | 4.77 | 0.9 | 1.3 | 5.4 | 
C[C@H]1[C@@H](O)O[C@@H]2O[C@@]3(C)CC[C@H]4[C@H](C)CC[C@@H]1[C@@]24OO3 [DHA 2, dihydroartemisinin] | 7.1 | 1.4 | 0.6 | 0.78 | 1.3 | 1.5 | 10,039 | 0.7 |  |  |  |  |  | 
CC1CCC2C(C)C(N3CCNCC3)OC3OC4(C)CCC1C32OO4 (stereo not shown) [DHA-piperazine 9] | 0.5 |  | 0.61 |  |  |  |  | 0.45 |  |  |  |  |  | 
CN(C)c1ccc2nc3ccc(=[N+](C)C)cc-3sc2c1 [MB, methylene blue] | 43.3 |  |  |  |  |  |  |  |  |  |  |  |  | 
CC1CCC2C(C)C(N3CCN(C(=O)Nc4ccccc4)CC3)OC3OC4(C)CCC1C32OO4 (stereo not shown) [Phenylurea 10] | 5.8 | 39.3 | 0.61 | 0.02 | 48.8 | 1.6 | 1,846 | 0.36 |  |  |  |  |  | > 20 fold
CC1CCC2C(C)C(NS(N)(=O)=O)OC3OC4(C)CCC1C32OO4 (stereo not shown) [Sulfamide 11] | 1.55 | 0.4 | 0.56 | 28.0 | 0.04 | 1.0 | 51,376 | 0.64 |  |  |  |  |  | 

Read-outs that look alike come from different tables or passages of the source.
